Data as given in PubChem BioAssay AID1259308 (NCATS, 2017).
Assay: 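Candidate targets for better recombinant protein yield in mammalian cells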 (primary screen). System: human HEK293 embryonic kidney cells stably expressing firefly luciferase (HEK-CMV-Luc2-Hygro). Reagents: single siRNA against human genes, 0.8 pmol siRNA per well. Timing: 72 h. Detection: 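Reporter luminescence and viable-cell signal on separate replicate plates, given as percent of non-targeting control and median/MAD z-scores, plus per-cell luciferase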. Reading the numbers: total luciferase, z-score and total luciferase, % of control: higher = more reporter protein produced. Call rule: 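An siRNA counts as active if its total luciferase robust z-score exceeds 3; genes with two or more such siRNAs out of three were retested with fresh siRNAs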. Calls: active = raised luciferase; inactive = no rise.
The whole screen tested about 59,000 reagents; below is a part drawn at random. About 1,510 of all reagents (2.6%) were called active. 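Calls use total luciferase alone and ignore viability, so some active siRNAs may act by altering cell number.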 Entries without a mark were called inactive. Reagents against one gene are numbered here. Further read-outs or replicates are left out here.

Which result is listed for TPR (translocated promoter region, nuclear basket protein) #1?
total luciferase, z-score: -0.529; total luciferase, % of control: 71.4

With TPR (translocated promoter region, nuclear basket protein) #2, what does the deposit list?
total luciferase, z-score: 1.31; total luciferase, % of control: 108

What is on record for TPR (translocated promoter region, nuclear basket protein) #3?
total luciferase, z-score: -0.688; total luciferase, % of control: 68.2

Which result is listed for VAC14 (VAC14 component of PIKFYVE complex) #1?
total luciferase, z-score: 0.855; total luciferase, % of control: 98.9

For VAC14 (VAC14 component of PIKFYVE complex) #2, what does the deposit list?
total luciferase, z-score: -0.163; total luciferase, % of control: 78.6

With VAC14 (VAC14 component of PIKFYVE complex) #3, what does the deposit list?
total luciferase, z-score: -0.0983; total luciferase, % of control: 79.9

What did the screen give for NDUFAB1 (NADH:ubiquinone oxidoreductase subunit AB1) #1?
total luciferase, z-score: 1.84; total luciferase, % of control: 118

What did the screen give for NDUFAB1 (NADH:ubiquinone oxidoreductase subunit AB1) #2?
total luciferase, z-score: -2.15; total luciferase, % of control: 39.2

Which result is listed for NDUFAB1 (NADH:ubiquinone oxidoreductase subunit AB1) #3?
total luciferase, z-score: -2.12; total luciferase, % of control: 39.7

For TTC12 (tetratricopeptide repeat domain 12) #1, what does the deposit list?
total luciferase, z-score: 0.333; total luciferase, % of control: 88.5

How did the screen score TTC12 (tetratricopeptide repeat domain 12) #2?
total luciferase, z-score: 0.137; total luciferase, % of control: 84.6

For TTC12 (tetratricopeptide repeat domain 12) #3, what does the deposit list?
total luciferase, z-score: 0.0558; total luciferase, % of control: 83

What is on record for RAB37 (RAB37, member RAS oncogene family) #1?
total luciferase, z-score: 0.285; total luciferase, % of control: 87.6

What is on record for RAB37 (RAB37, member RAS oncogene family) #2?
total luciferase, z-score: -1.17; total luciferase, % of control: 58.6

Which result is listed for RAB37 (RAB37, member RAS oncogene family) #3?
total luciferase, z-score: -0.639; total luciferase, % of control: 69.2

With RORC (RAR related orphan receptor C) #1, what was measured?
total luciferase, z-score: 0.805; total luciferase, % of control: 97.9

What is on record for RORC (RAR related orphan receptor C) #2?
total luciferase, z-score: 0.745; total luciferase, % of control: 96.7

With RORC (RAR related orphan receptor C) #3, what was measured?
total luciferase, z-score: 1.82; total luciferase, % of control: 118

With IYD (iodotyrosine deiodinase) #1, what does the deposit list?
total luciferase, z-score: 1.06; total luciferase, % of control: 103

For IYD (iodotyrosine deiodinase) #2, how do the results read?
total luciferase, z-score: -0.241; total luciferase, % of control: 77.1

With IYD (iodotyrosine deiodinase) #3, what was measured?
total luciferase, z-score: -0.32; total luciferase, % of control: 75.5

What is on record for FAM91A1 (family with sequence similarity 91 member A1) #1?
total luciferase, z-score: -1.69; total luciferase, % of control: 48.2

With FAM91A1 (family with sequence similarity 91 member A1) #2, how do the results read?
total luciferase, z-score: 0.613; total luciferase, % of control: 94.1

With FAM91A1 (family with sequence similarity 91 member A1) #3, what was measured?
total luciferase, z-score: -0.636; total luciferase, % of control: 69.2

What is on record for OR9Q1 (olfactory receptor family 9 subfamily Q member 1) #1?
total luciferase, z-score: -1.11; total luciferase, % of control: 59.9

What did the screen give for OR9Q1 (olfactory receptor family 9 subfamily Q member 1) #2?
total luciferase, z-score: 0.658; total luciferase, % of control: 95

With OR9Q1 (olfactory receptor family 9 subfamily Q member 1) #3, what does the deposit list?
total luciferase, z-score: 0.765; total luciferase, % of control: 97.1

With AQP3 (aquaporin 3 (Gill blood group)) #1, what does the deposit list?
total luciferase, z-score: 0.746; total luciferase, % of control: 96.7

For AQP3 (aquaporin 3 (Gill blood group)) #2, how do the results read?
total luciferase, z-score: -0.467; total luciferase, % of control: 72.6

How did the screen score AQP3 (aquaporin 3 (Gill blood group)) #3?
total luciferase, z-score: 2.94; total luciferase, % of control: 140

What is on record for ARV1 (ARV1 fatty acid homeostasis modulator) #1?
total luciferase, z-score: -0.0546; total luciferase, % of control: 80.8

For ARV1 (ARV1 fatty acid homeostasis modulator) #2, how do the results read?
total luciferase, z-score: -0.155; total luciferase, % of control: 78.8

For ARV1 (ARV1 fatty acid homeostasis modulator) #3, what does the deposit list?
total luciferase, z-score: 0.543; total luciferase, % of control: 92.7

As entered above:
Result of RAB37 (RAB37, member RAS oncogene family) #3 in “total luciferase, z-score”: -0.639
Result for VAC14 (VAC14 component of PIKFYVE complex) #2 under “total luciferase, % of control”: 78.6
Under “total luciferase, % of control”, NDUFAB1 (NADH:ubiquinone oxidoreductase subunit AB1) #3 is entered as 39.7
For “total luciferase, % of control”, RORC (RAR related orphan receptor C) #1 has 97.9
IYD (iodotyrosine deiodinase) #3, total luciferase, z-score = -0.32
Value for RAB37 (RAB37, member RAS oncogene family) #1 under “total luciferase, z-score”: 0.285
